From article PMC10647616, “Side-Chain Modified [^99mTc]Tc-DT1 Mimics: A Comparative Study in NTS1R-Positive Models” (International Journal of Molecular Sciences, 2023)
Entries after “also recorded” stand apart in the source; their conditions may differ.

Tested on: AsPC-1 xenografts
Experiment: SPECT/CT imaging of SCID mice bearing AsPC-1 xenografts
Type: in vivo, mouse
Conditions: 4 h pi, radioligand alone

[^99mTc]Tc-DT1: Tc-99m labeled DT1 (N4-Gly-Arg-Arg-Pro-Tyr-Ile-Leu-OH), unmodified reference radioligand (GRRPYIL; N4 chelator, 99mTc label, C-terminal OH; printed: Gly-Arg-Arg-Pro-Tyr-Ile-Leu-)
visualization of the implanted AsPC-1 tumor on SPECT/CT: failed to clearly visualize the implanted tumor; also recorded: failed to effectively target the implanted tumor
